# Data as given in patent US20230002320A1, “COMPOUNDS AND COMPOSITIONS FOR TREATING CONDITIONS ASSOCIATED WITH STING ACTIVITY” (IFM Due, Inc., priority 2019, published 2023).
# Sequences of proteins named here, by UniProt entry; tags and fusion partners are left off.
# UniProt Q86WV6, whole entry R71H/G230A/H232R/R293Q: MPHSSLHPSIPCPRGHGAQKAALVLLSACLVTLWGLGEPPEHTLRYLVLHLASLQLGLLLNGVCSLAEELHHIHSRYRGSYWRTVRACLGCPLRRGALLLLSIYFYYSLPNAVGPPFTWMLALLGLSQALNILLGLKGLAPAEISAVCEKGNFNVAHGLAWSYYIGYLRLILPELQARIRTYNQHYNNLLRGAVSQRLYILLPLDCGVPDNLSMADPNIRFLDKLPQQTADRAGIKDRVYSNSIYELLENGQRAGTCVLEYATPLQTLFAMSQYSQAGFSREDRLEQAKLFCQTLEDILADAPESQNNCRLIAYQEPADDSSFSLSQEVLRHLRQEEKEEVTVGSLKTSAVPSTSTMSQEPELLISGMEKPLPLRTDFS
# pEC50: −log10 of the molar value. The match of structure and compound is tentative.
# Target: hSTING (Homo sapiens, UniProt Q86WV6)
# Assay: STING reporter assay (luciferase) in THP1-Dual KO-IFNAR2 cells activated with 2'3' cGAMP
# Format: cell-based
# Conditions: read-out: hSTING: EC50, 15 μM 2'3' cGAMP, 24 h
# Procedure: STING pathway activation by the compounds described herein was measured using THP1-Dual™ cells (KO-IFNAR2).
# THP1-Dual™ KO-IFNAR2 Cells (obtained from invivogen) were maintained in RPMI, 10% FCS, 5 ml P/S, 2 mM L-glut, 10 mM Hepes, and 1 mM sodium pyruvate. Compounds were spotted in empty 384 well tissue culture plates (Greiner 781182) by Echo for a final concentration of 0.0017-100 μM. Cells were plated into the TC plates at 40 μL per well, 2×10E6 cells/mL. For activation with STING ligand, 2′3′ cGAMP (MW 718.38, obtained from Invivogen), was prepared in Optimem media. […]
# 2 mL of solution A and 2 ml Solution B was mixed and incubated for 20 min at room temperature (RT). […] Luciferase reporter activity was then measured. EC50 values were calculated by using standard methods known in the art.
# Luciferase reporter assay: 10 μL of supernatant from the assay was transferred to white 384-plate with flat bottom and squared wells. one pouch of QUANTI-Luc™ Plus was dissolved in 25 mL of water. […] Luminescence was measured on a Platereader (e.g., Spectramax I3X (Molecular Devices GF3637001)).
# Luciferase reporter activity was then measured. EC50 values were calculated by using standard methods known in the art. […]
compound,measurement,value
"CC(C)(O)Cn1cc(-c2ccc3[nH]cc(NC(=O)Nc4ccc(C(F)(F)F)cc4)c3c2)cn1 [Compound 297, 1-(5-(1-(2-hydroxy-2-methylpropyl)-1H-pyrazol-4-yl)-1H-indol-3-yl)-3-(4-(trifluoromethyl)phenyl)urea]",pEC50,6.00 to 6.70
